Source: patent US11980937B1 (KING FAISAL UNIVERSITY, priority 2023, dated 2024)

Key:
Assay type in all cases: cell-based
[1] = tested on: MIAPaCa-2 (pancreas); experiment: In vitro cytotoxic activity MTT assay, MIAPaCa-2; settings: Homo sapiens, MIA PaCa-2; MIAPaCa-2 cells, exposed for 96 hours; read-out: IC50, 50% inhibition of cell proliferation, MIAPaCa-2 (pancreas)
Description: (§1) Compounds 1-16 were screened for their in vitro cytotoxic activity utilizing a 3-(4,5-dimethyl-thiazol-2-yl)-2,5-diphenyltetrazolium bromide (MTT) assay against selected cancer human cell lines consisting of PC3 (prostate), HCT116 (colon), A375 (melanoma), H1299 (lung), MIAPaCa-2 (pancreas), HL60 (leukemia), MCF7 (breast), MDA-MB-231 (breast) (T. Mosmann, J. Immunol. Meth., 1983, 65, 55-63). The cells were cultured at 37° C. in RMPI1640 medium supplemented with 10% fetal bovine serum, 50 IU/mL penicillin, and 50 μg/mL streptomycin in a 5% CO2 incubator. All cells were sub-cultured 3 times/week by trypsinisation. Viable cells were seeded and allowed to adhere for 12 hours before a test drug was added in 96-well plates at an initial density of 1.0×10^5 cells/mL. Tumor cell lines were separately exposed to various concentrations of the tested compounds followed by incubation at a temperature of 37° C. during 96 hours inside a medium of fresh RMPI 1640. Cells were subsequently incubated at 37° C. using MTT at 0.5 mg/mL during 4 hours. After removal of supernatant, formazan crystals were dissolved in isopropanol and the optical density was measured at 570 nm. CX-4945 was used as a positive control.

[2] = tested on: PC3 (prostate); experiment: In vitro cytotoxic activity MTT assay, PC3; settings: Homo sapiens, PC-3; PC3 cells, exposed for 96 hours; read-out: IC50, 50% inhibition of cell proliferation, PC3 (prostate)
Description: as §1

[3] = tested on: MDA-MB-231 (breast); experiment: In vitro cytotoxic activity MTT assay, MDA-MB-231; settings: Homo sapiens; MDA-MB-231 cells, exposed for 96 hours; read-out: IC50, 50% inhibition of cell proliferation, MDA-MB-231 (breast)
Description: as §1

[4] = tested on: A375 (melanoma); experiment: In vitro cytotoxic activity MTT assay, A375; settings: Homo sapiens, A-375; A375 cells, exposed for 96 hours; read-out: IC50, 50% inhibition of cell proliferation, A375 (melanoma)
Description: as §1

[5] = tested on: HCT116 (colon); experiment: In vitro cytotoxic activity MTT assay, HCT116; settings: Homo sapiens, HCT-116; HCT116 cells, exposed for 96 hours; read-out: IC50, 50% inhibition of cell proliferation, HCT116 (colon)
Description: as §1

[6] = tested on: HL60 (leukemia); experiment: In vitro cytotoxic activity MTT assay, HL60; settings: Homo sapiens, HL-60; HL60 cells, exposed for 96 hours; read-out: IC50, 50% inhibition of cell proliferation, HL60 (leukemia)
Description: as §1

[7] = tested on: MCF7 (breast); experiment: In vitro cytotoxic activity MTT assay, MCF7; settings: Homo sapiens; MCF7 cells, exposed for 96 hours; read-out: IC50, 50% inhibition of cell proliferation, MCF7 (breast)
Description: as §1

[8] = tested on: H1299 (lung); experiment: In vitro cytotoxic activity MTT assay, H1299; settings: Homo sapiens, NCI-H1299; H1299 cells, exposed for 96 hours; read-out: IC50, 50% inhibition of cell proliferation, H1299 (lung)
Description: as §1

O=C(O)c1ccc2c(c1)nc(Nc1cccc(Cl)c1)c1ccncc12 [CX-4945]
IC50 [1]: 1 µM | IC50 [2]: 2 µM | IC50 [3]: 6.2 µM | IC50 [4]: 4.1 µM | IC50 [5]: 2.3 µM | IC50 [6]: 3.7 µM | IC50 [7]: 9.1 µM | IC50 [8]: 2.3 µM
